Data: PMC12229603
These are yes or no findings as the source states them, for the method shown. In cells and extracts the contact can be indirect. Some binding calls cover weakened binding; strength is not graded here.

Molecular target: GFP-tagged NTSR1 (human) (UniProt P30989)
Test: co-IP; lysates of stable HEK-293 cells co-overexpressing GFP-NTSR1/RFP-NTSR3, treated with or without NTS (100 nM) for 15 min; GFP pulled down (ChromoTek GFP-Trap agarose / anti-GFP), western blot with anti-GFP and anti-RFP antibodies

RFP-tagged NTSR3 (from UniProt Q99523 78-831) (receptor)
binding: binds
